From patent US20050003403A1 (IBC PHARMACEUTICALS, published 2005)
Results are given in words; binding and its absence hold for the method and conditions named. Some binding calls cover weakened binding; strength is not graded here.

Chains of the proteins cited; added tags and fusions are not shown. Residues count along the entry.
UniProt P06731, residues 35-685: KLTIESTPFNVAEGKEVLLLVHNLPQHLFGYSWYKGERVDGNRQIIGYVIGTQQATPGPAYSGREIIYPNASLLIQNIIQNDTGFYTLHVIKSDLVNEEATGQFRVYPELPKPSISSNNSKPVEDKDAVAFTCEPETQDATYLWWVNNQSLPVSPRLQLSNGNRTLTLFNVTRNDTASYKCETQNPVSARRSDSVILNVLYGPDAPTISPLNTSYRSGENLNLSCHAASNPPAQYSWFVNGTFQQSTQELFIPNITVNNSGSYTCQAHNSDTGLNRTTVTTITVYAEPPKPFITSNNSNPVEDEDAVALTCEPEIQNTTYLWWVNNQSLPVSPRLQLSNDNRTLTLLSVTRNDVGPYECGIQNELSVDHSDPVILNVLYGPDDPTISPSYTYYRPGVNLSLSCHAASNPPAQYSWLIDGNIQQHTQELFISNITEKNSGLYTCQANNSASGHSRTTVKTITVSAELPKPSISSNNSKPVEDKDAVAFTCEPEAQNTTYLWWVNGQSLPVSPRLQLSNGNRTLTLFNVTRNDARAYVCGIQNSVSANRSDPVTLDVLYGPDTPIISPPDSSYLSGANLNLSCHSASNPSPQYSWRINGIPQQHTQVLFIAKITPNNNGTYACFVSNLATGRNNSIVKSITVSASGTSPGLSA

Key:
[1] = target: carcinoembryonic antigen (CEA) (UniProt P06731); assay: competitive ELISA and BIAcore
[2] = target: carcinoembryonic antigen (CEA) (UniProt P06731); assay: SE-HPLC of radioiodinated protein mixed with increasing amounts of CEA

- binding [1]: binds
- binding [2]: binds
B1: BS14HP (bispecific antibody)
chain 1: EAEAEFMEVQLVESGGDLVKPGGSLKLSCAASGFTFSIYTMSWLRQTPGKGLEWVATLSGDGDDIYYPDSVKGRFTISRDNAKNSLYLQMNSLRAEDTALYYCARVRLGDWDFDVWGQGTTVSVSSGGGGSDIQLTQSPSSLSASVGDRVTITCKASQDVGTSVAWYQQKPGKAPKLLIYWTSTRHTGVPSRFSGSGSGTDFTFTISSLQPEDIATYYCQQYSLYRSFGQGTKVEIKRLEGGGSEVQLVESGGGVVQPGRSLRLSCSASGFDFTTYWMSWVRQAPGKGLEWIGEIHPDSSTINYAPSLKDRFTISRDNAKNTLFLQMDSLRPEDTGVYFCASLYFGFPWFAYWGQGTPVTVSVDHHHHHH
chain 2: EAEAEFDIQLTQSPSSLSASVGDRVTITCKASQDVGTSVAWYQQKPGKAPKLLIYWTSTRHTGVPSRFSGSGSGTDFTFTISSLQPEDIATYYCQQYSLYRSFGQGTKVEIKRGGGQFMEVQLVESGGGVVQPGRSLRLSCSASGFDFTTYWMSWVRQAPGKGLEWIGEIHPDSSTINYAPSLKDRFTISRDNAKNTLFLQMDSLRPEDTGVYFCASLYFGFPWFAYWGQGTPVTVSGGGGSDIVMTQSPSSLAVSPGERVTLTCKSSQSLFNSRTRKNYLGWYQQKPGQSPKLLIYWASTRESGVPDRFSGSGSGTDFTLTINSLQAEDVAVYYCTQVYYLCTFGAGTKLELKRLDHHHHHH
notes: Non-covalent heterodimer with two CEA sites and one HSG site; The alpha-factor signal peptide is removed on secretion; also called bispecific trivalent heterodimer; hMN-14 x hMN-14 x 679 produced in Pichia pastoris
